Measured values: PMC8613289
No constants are given. Whether binding was seen depends on the method and setting. In cells and extracts the contact can be indirect. These calls come from enrichment with a bait or labelling near it, and not all partners need be listed.

By UniProt entry, the sequences of proteins in these tests, tags left out. Residues count along the entry.
UniProt P29317, residues 24-976: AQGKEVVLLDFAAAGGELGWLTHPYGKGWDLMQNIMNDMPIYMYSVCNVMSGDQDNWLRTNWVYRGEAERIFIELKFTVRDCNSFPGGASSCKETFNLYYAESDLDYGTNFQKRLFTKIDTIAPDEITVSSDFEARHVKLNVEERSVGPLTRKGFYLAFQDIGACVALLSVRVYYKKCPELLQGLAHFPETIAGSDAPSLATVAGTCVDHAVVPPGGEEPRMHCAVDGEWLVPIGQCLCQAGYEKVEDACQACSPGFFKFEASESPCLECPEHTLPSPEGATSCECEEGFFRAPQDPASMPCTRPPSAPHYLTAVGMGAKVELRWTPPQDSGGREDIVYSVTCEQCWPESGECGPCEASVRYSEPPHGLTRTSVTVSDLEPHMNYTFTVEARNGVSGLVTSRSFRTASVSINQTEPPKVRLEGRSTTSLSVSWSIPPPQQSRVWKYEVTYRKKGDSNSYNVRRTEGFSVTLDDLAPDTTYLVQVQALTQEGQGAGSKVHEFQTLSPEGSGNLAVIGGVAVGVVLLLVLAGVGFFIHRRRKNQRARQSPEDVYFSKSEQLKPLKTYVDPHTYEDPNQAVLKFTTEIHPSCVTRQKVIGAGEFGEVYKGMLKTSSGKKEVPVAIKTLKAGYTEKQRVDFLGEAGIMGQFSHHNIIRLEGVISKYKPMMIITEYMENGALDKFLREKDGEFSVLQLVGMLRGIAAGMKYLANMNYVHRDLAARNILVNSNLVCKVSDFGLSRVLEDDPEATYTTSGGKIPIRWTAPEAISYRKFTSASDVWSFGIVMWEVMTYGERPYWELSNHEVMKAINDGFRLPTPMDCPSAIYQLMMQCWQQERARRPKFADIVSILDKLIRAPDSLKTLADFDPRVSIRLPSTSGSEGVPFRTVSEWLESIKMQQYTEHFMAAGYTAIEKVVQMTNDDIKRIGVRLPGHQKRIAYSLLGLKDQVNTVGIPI
UniProt Q96HA1: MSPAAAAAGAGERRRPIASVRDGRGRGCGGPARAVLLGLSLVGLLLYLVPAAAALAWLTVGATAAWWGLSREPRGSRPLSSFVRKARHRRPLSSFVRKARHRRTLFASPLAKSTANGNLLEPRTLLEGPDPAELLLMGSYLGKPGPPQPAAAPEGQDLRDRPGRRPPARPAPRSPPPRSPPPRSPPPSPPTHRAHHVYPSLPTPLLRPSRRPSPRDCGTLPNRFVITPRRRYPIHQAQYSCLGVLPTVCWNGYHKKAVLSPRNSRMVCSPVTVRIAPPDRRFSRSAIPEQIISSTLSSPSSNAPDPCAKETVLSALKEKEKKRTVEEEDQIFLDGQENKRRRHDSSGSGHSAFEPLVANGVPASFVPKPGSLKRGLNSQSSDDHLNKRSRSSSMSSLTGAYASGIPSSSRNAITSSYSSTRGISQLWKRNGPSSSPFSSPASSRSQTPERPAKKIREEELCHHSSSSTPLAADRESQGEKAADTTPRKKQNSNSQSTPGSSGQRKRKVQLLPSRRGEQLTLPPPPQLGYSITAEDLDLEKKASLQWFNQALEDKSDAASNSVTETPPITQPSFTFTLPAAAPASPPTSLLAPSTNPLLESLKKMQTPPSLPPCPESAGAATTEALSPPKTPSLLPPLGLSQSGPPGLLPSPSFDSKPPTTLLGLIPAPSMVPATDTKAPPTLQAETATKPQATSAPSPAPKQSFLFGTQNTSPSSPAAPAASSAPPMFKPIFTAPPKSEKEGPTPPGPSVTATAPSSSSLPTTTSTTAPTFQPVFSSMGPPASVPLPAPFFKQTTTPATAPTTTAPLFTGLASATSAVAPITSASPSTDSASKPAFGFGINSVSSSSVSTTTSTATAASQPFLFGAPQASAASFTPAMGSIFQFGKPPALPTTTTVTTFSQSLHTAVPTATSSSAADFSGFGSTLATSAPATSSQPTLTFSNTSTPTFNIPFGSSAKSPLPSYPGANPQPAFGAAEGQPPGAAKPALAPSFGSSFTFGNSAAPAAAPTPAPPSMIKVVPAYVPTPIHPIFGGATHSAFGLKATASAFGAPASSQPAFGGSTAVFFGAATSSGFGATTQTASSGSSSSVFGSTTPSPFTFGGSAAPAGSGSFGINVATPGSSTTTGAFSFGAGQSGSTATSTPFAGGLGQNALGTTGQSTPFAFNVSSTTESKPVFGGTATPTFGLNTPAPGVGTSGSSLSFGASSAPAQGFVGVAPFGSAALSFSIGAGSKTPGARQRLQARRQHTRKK
UniProt P49792: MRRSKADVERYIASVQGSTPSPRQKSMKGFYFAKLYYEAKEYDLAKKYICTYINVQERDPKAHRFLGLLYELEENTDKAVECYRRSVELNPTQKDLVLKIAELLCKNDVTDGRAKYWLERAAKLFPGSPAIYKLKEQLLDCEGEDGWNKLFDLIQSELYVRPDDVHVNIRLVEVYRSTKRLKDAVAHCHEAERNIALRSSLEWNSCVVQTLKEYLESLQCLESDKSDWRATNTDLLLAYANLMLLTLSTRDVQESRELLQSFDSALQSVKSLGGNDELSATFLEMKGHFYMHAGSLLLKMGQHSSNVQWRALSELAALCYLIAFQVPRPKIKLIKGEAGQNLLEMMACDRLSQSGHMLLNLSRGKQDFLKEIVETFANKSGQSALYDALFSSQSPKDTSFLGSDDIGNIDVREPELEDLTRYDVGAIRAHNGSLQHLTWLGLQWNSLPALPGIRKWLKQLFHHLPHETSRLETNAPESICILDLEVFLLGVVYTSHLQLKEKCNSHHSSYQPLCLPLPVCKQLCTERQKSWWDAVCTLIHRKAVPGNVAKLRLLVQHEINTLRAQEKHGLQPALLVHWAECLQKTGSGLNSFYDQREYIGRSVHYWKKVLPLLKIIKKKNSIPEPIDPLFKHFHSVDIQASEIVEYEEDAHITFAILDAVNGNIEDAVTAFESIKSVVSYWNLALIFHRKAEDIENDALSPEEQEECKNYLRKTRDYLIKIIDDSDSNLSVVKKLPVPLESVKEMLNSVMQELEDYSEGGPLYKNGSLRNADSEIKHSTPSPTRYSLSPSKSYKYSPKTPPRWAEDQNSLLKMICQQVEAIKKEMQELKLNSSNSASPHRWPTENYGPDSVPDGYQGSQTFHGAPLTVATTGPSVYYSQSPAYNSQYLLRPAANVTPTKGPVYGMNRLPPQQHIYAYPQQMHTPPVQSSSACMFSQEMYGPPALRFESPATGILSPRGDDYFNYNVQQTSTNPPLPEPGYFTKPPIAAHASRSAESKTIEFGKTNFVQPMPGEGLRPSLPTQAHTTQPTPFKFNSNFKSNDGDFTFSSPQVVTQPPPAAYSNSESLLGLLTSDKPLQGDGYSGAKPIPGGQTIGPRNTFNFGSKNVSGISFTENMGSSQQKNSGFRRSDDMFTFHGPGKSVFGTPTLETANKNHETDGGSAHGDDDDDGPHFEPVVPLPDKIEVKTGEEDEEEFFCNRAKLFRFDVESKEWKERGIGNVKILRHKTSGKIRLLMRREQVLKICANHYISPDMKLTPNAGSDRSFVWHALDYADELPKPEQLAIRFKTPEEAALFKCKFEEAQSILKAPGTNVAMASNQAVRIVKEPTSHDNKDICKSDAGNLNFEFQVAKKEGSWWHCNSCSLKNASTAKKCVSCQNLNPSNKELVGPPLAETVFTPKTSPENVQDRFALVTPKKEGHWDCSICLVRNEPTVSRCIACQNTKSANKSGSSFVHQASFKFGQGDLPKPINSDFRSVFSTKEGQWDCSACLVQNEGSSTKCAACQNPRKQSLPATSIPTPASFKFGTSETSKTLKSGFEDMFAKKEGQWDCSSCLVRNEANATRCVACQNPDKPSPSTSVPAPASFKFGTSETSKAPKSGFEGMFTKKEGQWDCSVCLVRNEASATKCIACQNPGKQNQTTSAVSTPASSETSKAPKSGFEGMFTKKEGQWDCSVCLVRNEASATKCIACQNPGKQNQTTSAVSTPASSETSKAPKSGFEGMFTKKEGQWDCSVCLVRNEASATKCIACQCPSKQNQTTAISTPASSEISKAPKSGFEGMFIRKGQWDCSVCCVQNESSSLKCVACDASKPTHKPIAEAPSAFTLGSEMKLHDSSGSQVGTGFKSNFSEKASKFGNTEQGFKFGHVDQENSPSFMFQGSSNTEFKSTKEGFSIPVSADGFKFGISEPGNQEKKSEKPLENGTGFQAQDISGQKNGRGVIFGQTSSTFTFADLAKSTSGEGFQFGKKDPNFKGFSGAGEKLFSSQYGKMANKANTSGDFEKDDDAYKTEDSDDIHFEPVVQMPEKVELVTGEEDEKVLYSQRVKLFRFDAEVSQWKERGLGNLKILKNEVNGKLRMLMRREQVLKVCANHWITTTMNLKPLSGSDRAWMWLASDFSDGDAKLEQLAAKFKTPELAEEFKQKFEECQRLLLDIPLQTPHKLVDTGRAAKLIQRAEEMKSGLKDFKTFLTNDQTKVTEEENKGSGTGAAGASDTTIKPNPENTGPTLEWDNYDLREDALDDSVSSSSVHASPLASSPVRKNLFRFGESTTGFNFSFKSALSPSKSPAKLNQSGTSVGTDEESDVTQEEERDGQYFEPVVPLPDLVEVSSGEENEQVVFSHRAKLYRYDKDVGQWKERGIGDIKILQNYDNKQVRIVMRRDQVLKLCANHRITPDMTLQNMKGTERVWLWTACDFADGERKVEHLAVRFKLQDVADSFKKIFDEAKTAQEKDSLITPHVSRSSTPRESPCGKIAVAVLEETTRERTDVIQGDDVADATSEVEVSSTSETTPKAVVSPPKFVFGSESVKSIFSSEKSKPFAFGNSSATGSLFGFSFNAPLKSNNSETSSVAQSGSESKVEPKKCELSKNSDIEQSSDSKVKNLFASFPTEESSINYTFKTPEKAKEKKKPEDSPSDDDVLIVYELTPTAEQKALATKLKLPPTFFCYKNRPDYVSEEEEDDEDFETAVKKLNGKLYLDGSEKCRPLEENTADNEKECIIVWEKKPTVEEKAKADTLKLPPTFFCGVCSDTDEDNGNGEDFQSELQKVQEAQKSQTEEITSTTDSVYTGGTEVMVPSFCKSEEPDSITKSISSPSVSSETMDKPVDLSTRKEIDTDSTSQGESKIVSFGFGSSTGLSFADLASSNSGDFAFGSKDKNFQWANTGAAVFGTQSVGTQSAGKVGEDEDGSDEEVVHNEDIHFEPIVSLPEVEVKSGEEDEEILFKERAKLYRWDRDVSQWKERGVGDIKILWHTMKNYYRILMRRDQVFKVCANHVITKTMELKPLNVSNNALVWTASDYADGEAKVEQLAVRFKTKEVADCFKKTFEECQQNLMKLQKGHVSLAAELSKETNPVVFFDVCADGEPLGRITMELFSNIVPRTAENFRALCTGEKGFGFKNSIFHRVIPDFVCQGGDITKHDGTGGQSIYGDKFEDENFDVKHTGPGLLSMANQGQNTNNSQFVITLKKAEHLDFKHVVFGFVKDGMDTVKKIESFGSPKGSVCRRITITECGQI

B1: Nup50 (protein, UniProt Q9UKX7 1-468)
chain: MAKRNAEKELTDRNWDQEDEAEEVGTFSMASEEVLKNRAIKKAKRRNVGFESDTGGAFKGFKGLVVPSGGGRFSGFGSGAGGKPLEGLSNGNNITSAPPFASAKAAADPKVAFGSLAANGPTTLVDKVSNPKTNGDSQQPSSSGLASSKACVGNAYHKQLAALNCSVRDWIVKHVNTNPLCDLTPIFKDYEKYLANIEQQHGNSGRNSESESNKVAAETQSPSLFGSTKLQQESTFLFHGNKTEDTPDKKMEVASEKKTDPSSLGATSASFNFGKKVDSSVLGSLSSVPLTGFSFSPGNSSLFGKDTTQSKPVSSPFPTKPLEGQAEGDSGECKGGDEEENDEPPKVVVTEVKEEDAFYSKKCKLFYKKDNEFKEKGIGTLHLKPTANQKTQLLVRADTNLGNILLNVLIPPNMPCTRTGKNNVLIVCVPNPPIDEKNATMPVTMLIRVKTSEDADELHKILLEKKDA
B2: Nup133 (protein, UniProt Q8WUM0 1-1156)
chain: MFPAAPSPRTPGTGSRRGPLAGLGPGSTPRTASRKGLPLGSAVSSPVLFSPVGRRSSLSSRGTPTRMFPHHSITESVNYDVKTFGSSLPVKVMEALTLAEVDDQLTINIDEGGWACLVCKEKLIIWKIALSPITKLSVCKELQLPPSDFHWSADLVALSYSSPSGEAHSTQAVAVMVATREGSIRYWPSLAGEDTYTEAFVDSGGDKTYSFLTAVQGGSFILSSSGSQLIRLIPESSGKIHQHILPQGQGMLSGIGRKVSSLFGILSPSSDLTLSSVLWDRERSSFYSLTSSNISKWELDDSSEKHAYSWDINRALKENITDAIWGSESNYEAIKEGVNIRYLDLKQNCDGLVILAAAWHSADNPCLIYYSLITIEDNGCQMSDAVTVEVTQYNPPFQSEDLILCQLTVPNFSNQTAYLYNESAVYVCSTGTGKFSLPQEKIVFNAQGDSVLGAGACGGVPIIFSRNSGLVSITSRENVSILAEDLEGSLASSVAGPNSESMIFETTTKNETIAQEDKIKLLKAAFLQYCRKDLGHAQMVVDELFSSHSDLDSDSELDRAVTQISVDLMDDYPASDPRWAESVPEEAPGFSNTSLIILHQLEDKMKAHSFLMDFIHQVGLFGRLGSFPVRGTPMATRLLLCEHAEKLSAAIVLKNHHSRLSDLVNTAILIALNKREYEIPSNLTPADVFFREVSQVDTICECLLEHEEQVLRDAPMDSIEWAEVVINVNNILKDMLQAASHYRQNRNSLYRREESLEKEPEYVPWTATSGPGGIRTVIIRQHEIVLKVAYPQADSNLRNIVTEQLVALIDCFLDGYVSQLKSVDKSSNRERYDNLEMEYLQKRSDLLSPLLSLGQYLWAASLAEKYCDFDILVQMCEQTDNQSRLQRYMTQFADQNFSDFLFRWYLEKGKRGKLLSQPISQHGQLANFLQAHEHLSWLHEINSQELEKAHATLLGLANMETRYFAKKKTLLGLSKLAALASDFSEDMLQEKIEEMAEQERFLLHQETLPEQLLAEKQLNLSAMPVLTAPQLIGLYICEENRRANEYDFKKALDLLEYIDEEEDININDLKLEILCKALQRDNWSSSDGKDDPIEVSKDSIFVKILQKLLKDGIQLSEYLPEVKDLLQADQLGSLKSNPYFEFVLKANYEYYVQGQI

Each molecule was assayed against EphA2-V5-TurboID (wild-type EphA2) (human) (UniProt P29317) (assay: proximity labelling; EphA2-TurboID constructs in cells; biotin with or without HGF for 1 h; streptavidin-agarose beads; biotinylated proteins analysed by western blotting).

binding, binds:
POM121 (from UniProt Q96HA1 1-1249)
RanBP2 (from UniProt P49792 1-3224)
B1
B2
